In all, about 52,000 sequences went through this assay and about 210 (0.4%) were called active.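 The calls were made as follows: active = gene whose silencing raises cell survival under the drug, median off-target-corrected z-score across its silencing RNAs 2 or more; inactive = the rest.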 The list shows a part of the results.

Results on 104 sequences are retold here after PubChem BioAssay AID1347423 (Functional Genomics Laboratory (NCATS/FGL), 2020).

The experiment in a line: Resistance to Poly (ADP-Ribose) Polymerase inhibitor: Gene Identification via Genome-wide siRNA Screen. The settings on record: mouse BRCA2 R2336H ES cells, olaparib, CellTiter-Glo viability; stronger effect = higher value. In outline: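 Genome-wide siRNA screen (3 siRNAs/gene, 20 nM) in mouse ES cells carrying hypomorphic BRCA2 R2336H; olaparib 500 nM added 48 h post-transfection, CellTiter-Glo viability 72 h later. Normalized to plate-median negative control; MAD z-scores, gene median, seed-adjusted.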
(Cellular ATP, detected with luciferase, serves as a proxy for viable cell number.)
Regarding GCUUCCCUGCCGUGAUGAUTT against Git1, the z-score is inactive: -0.17. Turning to GGGUCUUAUCUCGAUGAGGTT against Flt3l, the z-score is inactive: 0.316. Consider GCAACUUGGGAACUCUUUGTT against BC027342, for which the z-score is inactive: 0.403.

As to CCAACAACGGCAUUCACUATT against Ebf3, the z-score was inactive: 0.4. As for AAAAAACAGCACCCUGAUGTT against Olfr204, the figure is inactive: 0.273. Turning to GGACAAAGACAAACUUUAATT against Scn4a, the z-score was inactive: -0.856. As for GCUUUCCUGUGCUCCAACGTT against Olfr527, the figure is inactive: -0.3; as for GGCAAAUGGAAAAUUCUGCTT against Rnf12, inactive: -0.843; as for GGAUAAGAGACAAUGAAUUTT against Fut7, inactive: 0.928. As for GGCCCUGUAUUUCUCUGACTT against Plat, the figure is inactive: -0.323; as for CCAAGUGUAUUUCACAUAATT against F2r, inactive: -0.313.

In the case of GGUGGUCUAAGUCCUGACATT against Hmx1, the z-score is inactive: -0.564. As for “GGUAGAUUCUAAUUGUUCATT against 5730536A07Rik”, the figure is inactive: 0.933.

As to “GCUUGCUUCGCCUACAUUGTT against 1200006F02Rik”, the z-score was inactive: -0.0338.

With GCCCACUUUCUAGGUAGUUTT against Olfr703, the z-score was inactive: -1.14. The value for GCAUGAGGAAAAAUCUUCATT against Neurod4 was inactive: 0.314; that for GCUCUUUCAACAUGUAGUUTT against Olfr1180 was inactive: 0.422.

For the sequence CCCGACACCAGUGGUAAAATT against Gluld1, the z-score was inactive: -0.721. The value for GUCCUGAAAAUGCUAUUCUTT against Olfr68 was inactive: 1.09; that for GCUAUCAUUAACAACAAAGTT against Olfr808 was inactive: 0.663. The value for CGAUAUGAUGACAAAUCAGTT against Pik3ap1 was inactive: 0.273. As for GGAAUGAGCUCGAUUAUAATT against Nrip1, the figure is inactive: 0.467; as for GGAGAGCAUUCCCAUUGCUTT against Ddx6, inactive: -0.664; as for GGAAGCACCCACAAAACCUTT against Barx2, inactive: -0.668. With GCUAAAAAAGCUUCUUCAUTT against Gypc, the z-score was inactive: 0.765. As for GGAAGGAGAAUGGUACUGGTT against Cd209e, the figure is inactive: 1.42; as for “GGGUAAGAACUUAUUAUUCTT against 5730461K03Rik”, inactive: 0.659.

With GGAUCUUUUAGCUAACCUATT against Tesk2, the z-score is inactive: 0.758. As for “GGCAAGUUAAUGGAUCAAATT against 6330415F13Rik”, the figure is inactive: 1.04; as for “CCCAUCCAAGAUUUGAUUUTT against 2310002L09Rik”, inactive: 0.176; as for GGAGACACAUAGGUGUAAATT against H2-T23, inactive: 0.596.

With CCAGCUUUUACCUAAUACCTT against Ggt1, the z-score is inactive: -0.685.

In the case of GGUGACAAAGAAAACAACATT against Il12rb2, the z-score is inactive: 0.108. The value for “GGCACUCAGCAAGAUUGUATT against 2310073E15Rik” was inactive: -1.16; that for “GGGAGAGGACGACCUAAAATT against 4921524J17Rik” was inactive: -0.0281. The value for GGCAUGAAUGGGAUACAUGTT against Srpk2 was inactive: -0.208; that for GGAGCUUUGAAGAGACUGGTT against Olfr117 was inactive: -1.77; that for GCGAGUGUAUAAUAUUCCUTT against Blnk was inactive: -0.783. The value for “GGUUUUUUUGCUAAUUAGCTT against 3110023E09Rik” was inactive: 0.475. “AACUGGACCACGGUACCAATT against A330070K13Rik”: the z-score was inactive: -1.16. For the sequence GGAAGAAAAAGAGGACACATT against Prkwnk4, the z-score was inactive: 0.133. As for AAAUGAUAUCAAUAAAAUATT against MGC78233, the figure is inactive: -0.176; as for GGCUCUGCCAUUUUCCCUUTT against F12, inactive: 0.273. The value for “GCACACCGUUUACCCUACCTT against 9830130M13” was inactive: 0.41; that for GCAUACCUAGGAAAAAACUTT against Ednra was inactive: 0.796. In the case of GCUUCUUACUGAUUGAUUGTT against Mgrn1, the z-score was inactive: 0.324. As for GGUGAUAAUUAAUGUCUUGTT against Birc1a, the figure is inactive: 1.92; as for GGAAGUAAUCAAGAAAUCATT against Gpx4, inactive: 0.121. The value for “GGCUGUCUUCUGAUCAAUUTT against 6330442E02Rik” was inactive: 0.47; that for “GCUGUUAAGGAAGGCGGACTT against D19Bwg1357e” was inactive: 0.833.

As to GGUCUAACGAGUUCAAAAATT against Brpf1, the z-score was inactive: 1.06. The value for GGAUCCAUUUUGAGGAUUUTT against Vipr1 was inactive: 0.716; that for “GGUGGGAAGAUAGAUAAAATT against 5430432N15Rik” was inactive: -0.654. Consider CCAGUGUUCUUACCUGGUGTT against Sesn2, for which the z-score was inactive: 0.819. On to GGAACAAAUUCUGGAGUUGTT against Zfp287, for which the z-score is inactive: 0.225. For the sequence GCCCAGUUCAACGGUGAAUTT against Zbtb1, the z-score is inactive: 0.15. Turning to GGUGUUUGAUAGGUAUCUUTT against Ppp2r4, the z-score is inactive: 0.179.

For the sequence GUUUUUCAUACAGUAGUAGTT against V1rc33, the z-score was inactive: -1.67. The value for GGGUUACCAGACUAACAAATT against Stfa3 was inactive: -1.02. As for GGUUCCAGUCUUUAAUUUCTT against Tpst1, the figure is inactive: 0.308; as for GGUGACCAGCUCCAUUUCUTT against Wisp2, inactive: 0.818. The value for “GCACUUAUGGCCAUUUCAGTT against 2610318K02Rik” was inactive: -1.58; that for GGGUCAAACCCAUACAGCUTT against Wdr22 was inactive: 0.181; that for GGUGUCCAAUAUUUUGAAGTT against Zfp120 was inactive: 0.287.

For CCCGGAUCUUUUCCUUACATT against Klf1, the z-score is inactive: 1.52. The value for “GGUAGUCUUGACCCAAAAGTT against 3230401K02Rik” was inactive: 0.405; that for GGACUCUGAUCUCUAUCAGTT against Tac2 was inactive: 0.00988; that for CCAUACAGGGUUAGCUCAUTT against LOC382243 was inactive: 0.311. As for GGUAUUUAGUAAACACCCATT against Edar, the figure is inactive: 0.782; as for GGAAGUAAACCUUCAUGAATT against Tnfsf5, inactive: 1. The value for GGCUAUGAAUCCAGAGCUUTT against Unc84a was inactive: -0.556; that for GGGACUCAACCUAUAUCUUTT against Gnpat was inactive: 0.00266; that for GGAAGAGCAUAUGGAAGACTT against Nxf7 was inactive: 0.958. Turning to “GGAAAAUUGCAUGAGGGUUTT against E330026B02Rik”, the z-score was inactive: -1.47. Regarding GGAAAACUUGAAGACAGAUTT against Zfp291, the z-score was inactive: -0.914. As for GGAACAUAAUGCAUUACCCTT against Nr1d2, the figure is inactive: 1.38; as for GGUGAAAUUACAGCAUUGUTT against Otx1, inactive: -0.695. The value for “GGACUUGGAAGUAAUUUUCTT against C230071H18Rik” was inactive: 2.75; that for GGUGUGUGCUUCAUCUAAATT against Smpdl3a was inactive: 0.147; that for GGCAGAGCAGUUUUCCUCATT against Kcna4 was inactive: -2.29. The value for GGAAUAACAGAUCAUACAGTT against Olfr194 was inactive: 0.331; that for GGAAUCUGCUUUCAGCUUGTT against Olfr1044 was inactive: 1.3; that for GGGCAUCAAACCUACUGUCTT against Bat2 was inactive: 0.44. For the sequence CCACUUUCACAUGAAGUUATT against Eif2s3x, the z-score is inactive: -2.28. As for “GCAGUUUUGUCAAGUUAGATT against 6430517E21Rik”, the figure is inactive: 1.86. Take CCUCACUCUAUAAUAAAGATT against MGC58341: the z-score was inactive: -0.0889.

Take GGAAAGUCUAAAGGAAAUUTT against Crnkl1: the z-score was inactive: -0.913. The value for GCGCAUCAAAAUUGAGAGUTT against Helz was inactive: -0.972; that for “GGACAAACAGGGUUAUUUATT against 1500001A10Rik” was inactive: 0.488. The value for “GGGAGCUCCAUUUAAAUUATT against A230103N10Rik” was inactive: 0.137. Regarding GGAGUAUUACGUCUGAUAUTT against Nrxn1, the z-score was inactive: -0.143.

Consider GGAAAUGAGUGAAGAUGAATT against Cdc2l1, for which the z-score is inactive: -2.01. The value for GGACUAUCGGGAGAAAGUGTT against Ywhaq was inactive: 0.286; that for GGUAUUGGGCCAUUGGUUGTT against MapKapk3 was inactive: 0.734. The value for CCUACUCCAAUGCUGUAGCTT against Slc27a1 was inactive: -0.591; that for “GCUUUAUUCACUCACUUUCTT against 4833446K15Rik” was inactive: -0.636; that for GGAAAGAUGAACAUGAAAGTT against Terf2 was inactive: 0.32.

Turning to CCAUAAGUGCCCUCGAGAUTT against Ka35, the z-score is inactive: -0.0244. As for “GGGCAACUCUGCAUACUGUTT against B230343H07Rik”, the figure is inactive: -0.0335. As for CCAACAACAGAUGCACCCUTT against Ccl11, the figure is inactive: 2.19; as for “GAAUCAGCUGUUCUCUCACTT against 1110025I09Rik”, inactive: 0.39. As for GGUAUAAGUUGGCAAGAUCTT against Cry2, the figure is inactive: -0.128.

“CCACUCUAUUUGUUUGAAATT against 9130014G24”: the z-score was inactive: 0.76. The value for GGUGUUCCACAAGCAAUGGTT against V1rf1 was inactive: -0.841.
